Experimental data: publication PMC4887716 (Iranian Journal of Basic Medical Sciences, 2016)

Assays:
[1] = system: P-gp; details: in situ rat brain perfusion; cited from earlier work
[2] = oral dose 2.68 mg, considering the intestinal fluid volume
[3] = system: P-gp; details: Caco-2 cells, 10 µM clemastine, 48 hr
[4] = system: P-gp; details: in silico model; cited from earlier work

## CN1CCC[C@@H]1CCO[C@](C)(c1ccccc1)c1ccc(Cl)cc1 [clemastine]
[1]
  brain penetration on co-perfusion with cyclosporine-A: not increased
[2]
  intestinal concentration after maximum recommended oral dose: about 7.8 µM
[3]
  P-gp expression (P-gp/β-actin band intensity) relative to untreated cells: low expression of P-gp
[4]
  predicted P-gp inhibition: P-gp inhibitor
